Source: publication PMC10079926

The chains behind the UniProt entries cited, without tags or fusion partners. Where a name states a change or a piece, a line headed by the entry shows the natural chain unless it says otherwise. Residues count along the entry.
UniProt Q5GJ75: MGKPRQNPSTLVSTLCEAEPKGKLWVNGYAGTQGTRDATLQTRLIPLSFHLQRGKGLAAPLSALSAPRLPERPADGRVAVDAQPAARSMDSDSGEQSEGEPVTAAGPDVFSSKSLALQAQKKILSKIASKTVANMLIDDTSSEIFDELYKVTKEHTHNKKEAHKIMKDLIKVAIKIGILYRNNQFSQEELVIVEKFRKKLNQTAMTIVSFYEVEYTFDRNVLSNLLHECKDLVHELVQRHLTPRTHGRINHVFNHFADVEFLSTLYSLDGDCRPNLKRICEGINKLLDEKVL
UniProt O75947: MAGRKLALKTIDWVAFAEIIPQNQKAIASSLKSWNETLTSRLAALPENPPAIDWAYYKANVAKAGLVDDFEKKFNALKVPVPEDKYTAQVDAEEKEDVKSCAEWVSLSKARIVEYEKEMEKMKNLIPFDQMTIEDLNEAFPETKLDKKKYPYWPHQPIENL
UniProt Q9UI09: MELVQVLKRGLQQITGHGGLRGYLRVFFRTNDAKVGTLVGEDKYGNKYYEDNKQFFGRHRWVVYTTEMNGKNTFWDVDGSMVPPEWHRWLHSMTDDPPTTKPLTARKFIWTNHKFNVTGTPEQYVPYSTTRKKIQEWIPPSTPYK
UniProt O00217, residues 35-210: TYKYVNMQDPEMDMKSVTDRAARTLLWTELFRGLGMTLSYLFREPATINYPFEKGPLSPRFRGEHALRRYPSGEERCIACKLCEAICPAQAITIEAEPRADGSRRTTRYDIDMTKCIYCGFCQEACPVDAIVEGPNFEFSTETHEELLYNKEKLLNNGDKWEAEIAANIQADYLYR
UniProt P19404, residues 33-249: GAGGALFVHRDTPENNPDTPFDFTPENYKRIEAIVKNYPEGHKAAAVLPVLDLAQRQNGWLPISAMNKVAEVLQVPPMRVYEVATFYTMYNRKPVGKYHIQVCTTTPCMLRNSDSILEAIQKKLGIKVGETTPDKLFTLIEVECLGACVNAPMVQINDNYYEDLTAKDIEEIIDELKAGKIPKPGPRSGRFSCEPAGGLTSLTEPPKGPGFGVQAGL

Target: TIPE3-HA (full-length TIPE3, TNFAIP8L3) (UniProt Q5GJ75)
Test: affinity purification with mass spectrometry; co-IP/MS: proteins immunoprecipitated by HA from extract of Cal33 cells with TIPE3-HA; IP lysis buffer, antibody overnight at 4 °C, protein A/G Sepharose beads; mass spectrometry

| Substance | binding |
| --- | --- |
| ATP5H (Complex V) (from UniProt O75947 1-161) | binds |
| NDUFA12 (Complex I) (from UniProt Q9UI09 1-145) | binds |
| NDUFS8 (Complex I) (from UniProt O00217 35-210) | binds |
| NDUFV2 (Complex I) (from UniProt P19404 33-249) | binds |

These are yes or no findings as the source states them, for the method shown. Binding seen in cells or lysates may run through a third protein. A yes stands for co-enrichment or nearness to the bait. Other partners may have been found.
